Patent US11274108B2 (priority 2015, dated 2022)

Assays:
[1] = test system: primary murine microglial cells
[2] = test system: microglia, monocytes/macrophages and lymphocytes in the brain and spinal cord; settings: mouse, in vivo

| SMILES | proliferative activity of unstimulated primary murine microglial cells [1] | CD86 expression (MFI) on microglia and monocyte/macrophage populations [2] | proliferation of CSF-1-stimulated primary murine microglial cells [1] |
| --- | --- | --- | --- |
| COc1ccc(C2COc3cc(Cn4cnc5cc(C#CC(C)(C)N)cnc54)ccc3O2)cn1 (stereo not shown) [Genz-882706, 4-(3-((2-(6-methoxypyridin-3-yl)-2,3-dihydrobenzo[b][1,4]dioxin-6-yl)methyl)-3H-imidazo[4,5-b]pyridin-6-yl)-2-methylbut-3-yn-2-amine] | increased level of proliferative activity | No significant effects | – |
| CCN(C(=O)c1c(O)c2c(Cl)cccc2n(C)c1=O)c1ccccc1 [Laquinimod] | increased level of proliferative activity | – | no effect or increased the proliferative activity |
